# Results from PubChem BioAssay (Tox21).
# Protein sequences, listed by entry. Tags and fused reporters are not part of them.
# UniProt Q969F8, whole entry: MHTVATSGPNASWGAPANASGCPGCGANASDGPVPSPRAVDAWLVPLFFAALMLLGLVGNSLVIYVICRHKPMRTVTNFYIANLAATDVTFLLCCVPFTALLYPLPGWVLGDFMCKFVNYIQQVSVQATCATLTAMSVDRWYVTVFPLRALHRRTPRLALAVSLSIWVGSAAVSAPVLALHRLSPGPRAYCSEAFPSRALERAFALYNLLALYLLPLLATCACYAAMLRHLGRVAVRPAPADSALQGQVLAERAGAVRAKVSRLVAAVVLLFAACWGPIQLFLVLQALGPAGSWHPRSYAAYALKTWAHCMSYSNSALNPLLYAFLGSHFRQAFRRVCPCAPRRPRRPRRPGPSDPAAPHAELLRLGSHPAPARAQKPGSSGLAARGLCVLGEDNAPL
# UniProt P28223, whole entry: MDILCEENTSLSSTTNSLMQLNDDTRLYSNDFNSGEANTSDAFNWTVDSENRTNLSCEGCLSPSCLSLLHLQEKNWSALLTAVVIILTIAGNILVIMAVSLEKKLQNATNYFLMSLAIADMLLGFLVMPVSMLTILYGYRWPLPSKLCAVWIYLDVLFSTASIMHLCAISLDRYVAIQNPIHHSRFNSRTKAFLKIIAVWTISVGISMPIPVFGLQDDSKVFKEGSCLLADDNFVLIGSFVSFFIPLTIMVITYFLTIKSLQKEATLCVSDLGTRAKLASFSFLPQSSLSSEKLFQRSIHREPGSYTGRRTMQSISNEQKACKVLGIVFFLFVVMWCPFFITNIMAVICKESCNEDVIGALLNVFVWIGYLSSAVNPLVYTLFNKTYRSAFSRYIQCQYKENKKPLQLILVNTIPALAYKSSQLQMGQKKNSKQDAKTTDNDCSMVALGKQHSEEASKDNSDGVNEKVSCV
# UniProt P14416, whole entry: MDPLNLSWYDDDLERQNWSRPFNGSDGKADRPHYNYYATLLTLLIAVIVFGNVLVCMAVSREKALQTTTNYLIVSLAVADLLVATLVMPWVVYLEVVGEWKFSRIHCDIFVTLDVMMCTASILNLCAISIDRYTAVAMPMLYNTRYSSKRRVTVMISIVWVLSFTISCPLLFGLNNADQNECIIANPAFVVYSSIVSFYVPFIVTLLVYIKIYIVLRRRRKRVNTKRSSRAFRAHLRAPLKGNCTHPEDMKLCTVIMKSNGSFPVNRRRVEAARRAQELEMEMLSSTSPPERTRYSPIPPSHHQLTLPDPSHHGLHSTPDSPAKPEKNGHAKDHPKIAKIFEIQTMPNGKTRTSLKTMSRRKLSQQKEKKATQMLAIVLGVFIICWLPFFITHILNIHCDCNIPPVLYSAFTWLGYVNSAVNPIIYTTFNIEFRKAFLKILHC
# These results got no clear call from the source, so the numbers are uncertain. Unless noted, calls follow the shape of the full dose curve.
# Experiments:
# [1] = Nuclear factor erythroid 2-related factor 2/antioxidant responsive element (Nrf2/ARE) small molecule agonists: qHTS cell viability counter screen in human keratinocytes (AID 1919968; active = well fitted curve in the direction sought with a large enough effect in the repeat runs; inconclusive = weak or mixed curves; inactive = no such curve, though single readings can be large; an effect the other way counts as inactive or inconclusive; also: nearly all actives have a fitted effect of over 55% in size); conditions: KeratinoSens HaCaT ARE cells viability, CellTiter-Fluor, 24 h
# Outline: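 Viability counter-screen: KeratinoSens reporter cells, DMSO-delivered compounds, 23 h at 37 C, CellTiter-Fluor fluorescence.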
# [2] = Nuclear factor erythroid 2-related factor 2/antioxidant responsive element (Nrf2/ARE) small molecule agonists: luciferase reporter gene qHTS assay in human keratinocytes (AID 1919969); conditions: KeratinoSens HaCaT ARE-luciferase, luminescence, 24 h; also: nearly all actives have a fitted effect of over 35% in size
# Excerpt: National Center for Advancing Translational Sciences [NCATS]
# Division of Preclinical Innovation [DPI]
# U.S. Environmental Protection Agency [EPA]
# National Institutes of Environmental Health Sciences [NIEHS]
# National Toxicology Program [NTP]
# U.S. Food and Drug Administration [FDA]
# Oxidative stress has been implicated in the pathogenesis of a variety of diseases ranging from cancer to neurodegeneration. The antioxidant response element (ARE) signaling pathway plays an important role in the amelioration of oxidative stress. The KeratinoSens (Givaudan, Switzerland) is an in vitro test method which quantifies luciferase induction as a measure of activation of Keap1-Nrf2-antioxidationt/electrophile response element (ARE) dependant pathway in HaCaT human keratinocytes stably transfected with a selectable plasmid. […] The activation of the report gene under culture conditions can be detected by ONE-Glo Luciferase Assay System (Promega, Madison, WI). […]
# HaCaT derived cell line KeratinoSens were dispensed at 1,500 cells/5uL/well in 1536-well white wall/solid bottom plates using a Multidrop Combi (ThermoFisher Scientific, Waltham, MA) dispenser. […] The plates were incubated at 37 C/5% CO2 for 23 h, followed by addition of 1uL/well of CellTiter-Fluor reagent into the assay plates using a Flying Reagent Dispenser (Aurora Discovery, San Diego, CA) for cell viability readout that measures cytotoxicity. […]
# [3] = molecular target: KiSS-1 receptor (Homo sapiens) (UniProt Q969F8); assay: Human kisspeptin (KISS1R) small molecule agonists, calcium flux assay in KISS1R-HEK293 cells (AID 1920064; active = well fitted curve in the direction sought with a large enough effect in the repeat runs; inconclusive = weak or mixed curves; inactive = no such curve, though single readings can be large; an effect the other way counts as inactive or inconclusive); conditions: KISS1R-HEK293, calcium flux fluorescence, agonist
# Outline: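 Intracellular calcium mobilization in KISS1R-HEK293 cells was recorded by fluorescence (Ex/Em 480/540) for 3 min following compound addition to cells pre-loaded 1 h with calcium dye.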
# [4] = p53 small molecule agonists, cell-based qHTS assay with rat liver microsomes (AID 1963578); conditions: HCT-116 p53RE-bla, beta-lactamase ratio, 16 h
# Outline: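 Fluorescence from a beta-lactamase reporter under a p53 response element was measured after cells had been incubated 16 h at 37 C with test compound and rat liver microsomes plus NADPH (0.5 mg/mL final each).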
# [5] = p53 small molecule agonists, cell-based qHTS assay with human liver microsomes: qHTS cell viability counter screen (AID 1963579); conditions: p53RE-bla HCT-116 viability, ATP luminescence, 16 h, HLM; also: nearly all actives have a fitted effect of over 45% in size
# Outline: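 Seed p53RE-bla cells at 4,000 per well; incubate 5 h at 37 C; add compound, human liver microsomes and NADPH; incubate 16 h at 37 C; add CellTiter-Glo; after 30 min at room temperature, read luminescence.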
# [6] = p53 small molecule agonists, cell-based qHTS assay with rat liver microsomes: qHTS cell viability counter screen (AID 1963580); conditions: p53RE-bla HCT-116 + rat microsomes, ATP viability, 16 h; also: nearly all actives have a fitted effect of over 45% in size
# Outline: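 HCT-116 p53RE-bla, 4,000 cells/well, 5 h pre-incubation; cpd + rat liver microsomes 0.5 mg/mL + NADPH 0.5 mg/mL (final); 16 h, 37 C; CellTiter-Glo, 30 min RT; luminescence.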
# [7] = cAMP Responsive Elements (CRE) small molecule agonists, cell-based qHTS assay (AID 1963590); conditions: CRE-bla HEK293T, beta-lactamase FRET ratio, 3 h
# Outline: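 FRET-based beta-lactamase readout (LiveBLAzer B/G, 2 h RT) quantified CRE activation in HEK 293T CRE-bla cells after 3 h treatment with DMSO-dissolved compounds.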
# [8] = cAMP Responsive Elements (CRE) small molecule antagonists, cell-based qHTS assay (AID 1963591; active = well fitted inhibition curve with a large enough effect in the signal ratio in the repeat runs, not every such curve was filed as active; inconclusive = weak or mixed curves, or effect the other way; the % refers to the signal ratio; as to activity change, negative = inhibition: % is scaled to controls: 0 for no effect and ±100 for the full control effect); conditions: CRE-bla HEK293T, beta-lactamase FRET ratio; activity change, negative = inhibition: at 92.4 µM (top of the series)
# Outline: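 qHTS in CRE-bla HEK 293T cells: compound in DMSO, then 0.25 uM NKH477 (final), 3 h at 37 °C/5% CO2; beta-lactamase FRET read-out after 2 h substrate incubation.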
# [9] = p53 small molecule agonists, cell-based qHTS assay (AID 1963582; active = well fitted activation curve with a large enough effect in the signal ratio in the repeat runs, not every such curve was filed as active; inconclusive = weak or mixed curves; the % refers to the signal ratio); conditions: HCT-116 p53RE-bla reporter, beta-lactamase FRET ratio, 16 h
# Outline: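 Agonist activity was scored from beta-lactamase FRET fluorescence in p53RE-bla cells treated 16 h at 37 C with compounds in DMSO, substrate incubation being 2 h at room temperature.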
# [10] = molecular target: 5-hydroxytryptamine receptor 2A (Homo sapiens) (UniProt P28223); assay: 5-hydroxytryptamine receptor 2A (HTR2A) small molecule antagonists, cell-based qHTS assay (AID 1963586); conditions: HTR2A-CHO cells, DOI-induced calcium flux, fluorescence; also: nearly all actives have a fitted effect of over 45% in size
# Outline: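 Antagonist-mode intracellular calcium assay: DOI (4 nM) added after 5 min compound pre-incubation at room temperature to dye-loaded HTR2A-CHO cells. Fluorescence followed for 3 min, sampled every second.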
# [11] = molecular target: D(2) dopamine receptor (Homo sapiens) (UniProt P14416); assay: Dopamine D2 receptor (DRD2) small molecule antagonists, cell-based qHTS assay (AID 1963595; active = well fitted inhibition curve with a large enough effect in the signal ratio in the repeat runs, with a control signal flat; inconclusive = weak or mixed curves, or effect the other way; the % refers to the signal ratio); conditions: HEK293-DRD2 cAMP HTRF antagonist mode
# Outline: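 Readout: HTRF cAMP, cAMP-d2 competing with cellular cAMP for anti-cAMP cryptate, read after 1 h. Cells: DRD2-HEK293. Conditions: 0.1 mM Ro20-1724, 12 nM quinpirole, 200 nM NKH477, 30 min RT.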
# Potency is read from the fitted curve at half-maximal effect.
smiles,measurement,setting,value
Cc1ccc([N+](=O)[O-])c([N+](=O)[O-])c1,Potency,[1],inconclusive: 70 µM
CN(C)CCCl,Potency,[2],inconclusive: 68.6 µM
COc1ccc([N+](=O)[O-])cc1[N+](=O)[O-],Potency,[3],inconclusive: 0.138 µM
CCOP(=O)(CC)Oc1ccc([N+](=O)[O-])cc1 (stereo unspecified),Potency,[4],inconclusive: 0.316 µM
O=[N+]([O-])c1cccc([N+](=O)[O-])c1,Potency,[5],inconclusive: 2.39 µM
same,Potency,[6],inconclusive: 1.9 µM
Cc1cccc([N+](=O)[O-])c1[N+](=O)[O-],Potency,[5],inconclusive: 21.7 µM
same,Potency,[6],inconclusive: 34.3 µM
same,Potency,[7],inconclusive: 38.6 µM
same,Potency,[8],inconclusive: 40.9 µM
CP(=O)(O)OCCC[Si](O)(O)O,Potency,[9],inconclusive: 1.82 µM
Nc1cc([N+](=O)[O-])cc([N+](=O)[O-])c1O,Potency,[9],inconclusive: 11.8 µM
CC(C)OP(C)(=O)OC(C)C,Potency,[10],inconclusive: 0.168 µM
Cc1ccc([N+](=O)[O-])cc1[N+](=O)[O-],Potency,[10],inconclusive: 0.33 µM
same,Potency,[11],inconclusive: 19.1 µM
CCN(CC)CCCl,"activity change, negative = inhibition",[8],inconclusive: 21.8%
